PubChem BioAssay AID493201 (National Center for Advancing Translational Sciences (NCATS), 2011)
The inconclusive results got no clear call from the source; some entries with a clear call stand among them for comparison. Potencies beside an inconclusive call are fits to weak or partial responses and may not hold up. Calls of active or inactive are those of the source. Calls come from the whole dose curve; as a rule, active = well fitted activation curve with a large enough effect; inconclusive = small, poorly fitted or top-dose-only effect; inactive = no such curve, though single readings can be large or run the other way.
Potency is the fitted concentration of half-maximal effect.

Experiment: qHTS Assay for Identifying a Potential Treatment of Ataxia-Telangiectasia: Secondary assay (no NCS) hit validation;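 note: phosphorylated KAP1 signal as a proxy for ATM-like kinase activity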
Conditions: A-T patient fibroblasts, AlphaLISA, no DNA damage added, 90 min; series mostly up to 76.9 µM
Summary of the method: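 Without NCS-induced DNA breaks, ATM-like activity scored as phospho-KAP1 AlphaLISA signal (pKAP1/total KAP1 bead pair) in ATM-null […] fibroblasts; compound series up to 76.7 uM final, 37C incubation, lysates read on AlphaScreen protocol.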
For `O=C(Nc1cccc([N+](=O)[O-])c1)N1CCCc2ccccc21`, the Potency was inconclusive: 1.64 µM [activator, partial curve, poor fit].
With `O=C(C[n+]1ccc2c(c1)nnn2-c1ccccc1)c1ccc(Cl)cc1` the Potency was inconclusive: 8.23 µM [activator, full curve].
In the case of `CC(C)OP(=O)(OC(C)C)C(O)c1ccc(N(C)C)cc1` (stereo not given), the Potency was active: 9.23 µM.
For `CNC(=O)c1ccc(-c2cc3onc(-c4ccccc4)c3c(=O)n2C)cc1`, the Potency was active: 18.4 µM.
For `Fc1cccc(Cl)c1/C=C/c1cnc2ccccc2n1`, the Potency was inconclusive: 46.3 µM [activator, single point].
With `O=C(Nc1ccccc1Oc1ccccc1)c1cccs1` the Potency was inconclusive: 51.9 µM [activator, single point].
In the case of `Fc1ccc(C2N(c3ccccc3)C(=S)N3CCCN23)cc1` (stereo not given), the Potency was inconclusive: 58.2 µM [activator, single point].
In the case of `CN(C)S(=O)(=O)c1ccc(NC(=O)c2ccc([N+](=O)[O-])cc2)cc1`, the Potency was inconclusive: 0.26 µM [activator, full curve, poor fit].
For `Cc1ccc(C(=O)N/C(=C\c2ccco2)C(=O)NC2CCS(=O)(=O)C2)cc1` (stereo not given), the Potency was inconclusive: 18.4 µM [activator, partial curve, poor fit].
With `CCNC(=S)N(Cc1cc2cccc(C)c2[nH]c1=O)C1CCCC1` the Potency was inconclusive: 41.2 µM [activator, single point].
With `COc1ccccc1N1CN(CCc2ccccc2)CNC1=S` the Potency was inconclusive: 11.6 µM [activator, full curve].
In the case of `O=C(CSc1ccccn1)N/N=C/C=C/c1ccccc1`, the Potency was “inactive”.
With `O=C(c1ccc(F)cc1)c1ccc(N2CCCCC2)cc1` the Potency was “inactive”.
For `CC(NC(=O)COC(=O)/C=C/c1ccc(Cl)cc1)c1ccccc1` (stereo not given), the Potency was inconclusive: 0.923 µM [activator, full curve, poor fit].
With `CCOC(=O)C1CCN(C(=O)c2cc3cc(Cl)ccc3[nH]2)CC1` the Potency was “inactive”.
